PubChem BioAssay AID686938 – Drosophila RNAi Screening Center – 2013
Aim: 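Fly genes required for calcium entry once internal stores are emptied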 (primary screen). Cells: Drosophila S2R+ cells. Reagent: long dsRNA against Drosophila genes, about 0.25 µg dsRNA per well, roughly 10,000 cells. Time to read-out: 5 days of knock-down before the calcium assay. Treatment: thapsigargin (SERCA pump blocker) to empty calcium stores; entry signal taken 4 min after adding it. Read-out: 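Duplicate raw fluo-4 intensities per well from a plate reader, at rest and four minutes after thapsigargin emptied calcium stores; entry-to-rest ratio filled for only some wells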. Scale: calcium entry signal: higher = stronger calcium signal after store depletion; resting calcium signal: higher = higher resting calcium signal. Hit rule: 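Hit if the duplicate-averaged plate z-score for entry over resting signal is under −3; wells with weak total dye signal (Fmax z < −2) or more than 5 off-targets removed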. Meaning of the calls: active = strongly reduced calcium entry; inactive = no strong reduction.
The screen tested about 23,000 reagents; below is an unselected part of those that have a named target and a result. Over the whole deposit, 75 (0.33%) got an active call. 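Raw plate signals without normalisation; calls rest on plate z-scores that were not deposited; ratio present for only 364 wells.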 Entries without a mark were called inactive. A plus sign joins genes that one reagent is predicted to hit. The record does not give: the dose of the treatment.

gene	amplicon	calcium entry signal, replicate 1 (fluorescence units)	calcium entry signal, replicate 2 (fluorescence units)	resting calcium signal, replicate 1 (fluorescence units)	resting calcium signal, replicate 2 (fluorescence units)
CG30289	DRSC03870	3.11e7	7.23e7	1.49e7	3.15e7
Ir94e	DRSC15229	4.17e7	5.45e7	2.03e7	2.50e7
nw	DRSC06451	5.48e7	4.59e7	2.33e7	2.22e7
nw	DRSC06749	2.96e7	2.84e7	1.31e7	1.46e7
nw	DRSC06896	4.96e7	4.84e7	2.16e7	2.22e7
CG31191	DRSC13455	3.19e7	3.68e7	1.61e7	1.72e7
CG31191	DRSC15214	3.46e7	4.94e7	6.68e7	2.17e7
CG31191	DRSC15215	3.99e7	5.17e7	5.49e7	2.28e7
CG33144	DRSC06132	6.27e7	4.71e7	2.57e7	2.02e7
CG33144	DRSC07024	3.86e7	3.92e7	1.74e7	1.61e7
Nepl7	DRSC02495	4.49e7	2.25e7	2.06e7	1.11e7
CG15545	DRSC15083	3.94e7	5.33e7	2.00e7	2.29e7
Xport-A + Xport-B	DRSC15586	3.97e7	3.28e7	2.01e7	1.43e7
gogo	DRSC10070	1.89e7	3.24e7	1.18e7	1.63e7
gogo	DRSC10071	2.46e7	4.54e7	1.22e7	1.79e7
CG12948	DRSC14576	4.18e7	3.67e7	2.08e7	1.87e7
CG8654	DRSC07231	3.05e7	2.67e7	1.48e7	1.35e7
shi	DRSC20373	4.24e7	4.60e7	2.05e7	2.20e7
CG13314	DRSC09985	3.30e7	4.20e7	1.59e7	1.98e7
CG43373	DRSC09869	6.35e7	7.00e7	2.70e7	2.53e7
CG43373	DRSC09885	5.14e7	7.11e7	2.53e7	2.69e7
CG11986	DRSC14461	3.40e7	3.42e7	1.50e7	1.58e7
miple2	DRSC08723	4.18e7	4.95e7	2.15e7	2.22e7
CG32099	DRSC21352	3.07e7	3.26e7	1.70e7	1.57e7
CG15514	DRSC15053	3.84e7	4.72e7	1.86e7	2.28e7
phol	DRSC10367	5.27e7	5.04e7	3.63e7	2.26e7
chm	DRSC03341	4.39e7		2.30e7	
Pect	DRSC02867	4.35e7		2.37e7	
Pect	DRSC02868	2.93e7 (active)	4.55e7	1.87e7	2.62e7
Deaf1	DRSC11143	3.11e7	5.44e7	1.45e7	2.54e7
Deaf1	DRSC22786	5.14e7	3.08e7	2.29e7	1.32e7
lncRNA:CR43485	DRSC08059	3.18e7	4.34e7	1.66e7	1.96e7
CG32107	DRSC09221	3.74e7	3.63e7	1.71e7	1.70e7
Ser7	DRSC18201	4.23e7	4.60e7	1.98e7	2.05e7
CG12170	DRSC12199	3.51e7	5.11e7	1.57e7	2.29e7
CG6362	DRSC07413	3.91e7	4.99e7	1.75e7	2.22e7
Yp2	DRSC18732	3.79e7	3.89e7	1.80e7	1.67e7
ver	DRSC10125	2.36e7	2.90e7	1.29e7	1.34e7
CG10348	DRSC02043	5.05e7	3.72e7	2.68e7	1.68e7
CG10348	DRSC21908	3.88e7	8.11e7	2.10e7	4.05e7
CG10348	DRSC23233	4.41e7	2.87e7	2.50e7	1.33e7

Active calls, of those listed so far:
gene	amplicon	calcium entry signal, replicate 1 (fluorescence units)	calcium entry signal, replicate 2 (fluorescence units)	resting calcium signal, replicate 1 (fluorescence units)	resting calcium signal, replicate 2 (fluorescence units)
Pect	DRSC02868	2.93e7 (active)	4.55e7	1.87e7	2.62e7
